PubChem BioAssay AID2685 (National Center for Advancing Translational Sciences (NCATS), 2010)
Some of the results follow. These are further read-outs of the screen, such as a control signal, another cell line or another target. No call is given for them. Compounds called inactive in the main read-out are mostly missing here. The note in brackets gives the kind of curve behind each potency; many fits are weak.

Assay: qHTS Assay for Lipid Storage Modulators in Drosophila S3 Cells;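 for cell number change: cells counted by Cell Tracker Red CMTPX staining in the red channel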
Details: BODIPY lipid droplet fluorescence, 18-24 h; for cell number change: measured here: cell count max response, cells fed with added oleic acid
Summary of the method: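 Drosophila S3 cells got compounds at several concentrations plus oleic acid (400 uM solution). Laser-scanning cytometry with 488 nm excitation read lipid droplets at 500-530 nm and cells at 575-640 nm. Percent activity was relative to 20 uM Triacsin C.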

[1] = measured here: cell number channel AC50, cells fed with added oleic acid
[2] = measured here: lipid fluorescence (Fed channel) AC50, cells fed with added oleic acid

Row | SMILES | AC50 [1] | cell number change [%] | AC50 [2]
1 | Cc1c(C(=O)O)oc2ccc3c(c12)C(O)CC(C)(C)O3 (centres undefined) | 0.0461 µM [rising, full curve, poor fit] | – | –
2 | Fc1ccccc1NC(=S)NCCc1cccc(Cl)c1 | – | -2.6 | 29.1 µM [falling, single point]
3 | CCCCCC1CCC(c2ccc(/C(N)=N/O)cc2)CC1 (centres undefined) | – | -18.4 | –
4 | O=C(CN1C(=O)NC2(CCCCC2)C1=O)Nc1ccccc1Cl | – | -1.18 | –
5 | CCn1c(SCC(=O)Nc2nc3c(s2)CCCC3)nc2c1c(=O)n(C)c(=O)n2C | – | 14.7 | –
6 | COC(=O)c1ccccc1NS(=O)(=O)c1ccc2[nH]c(=O)[nH]c2c1 | – | 18.6 | 3.26 µM [rising, single point]
7 | CCNC(=S)N/N=C(\C)c1ccc(Cl)s1 | – | -3.86 | –
8 | COc1ccccc1S(=O)(=O)Cc1ccc(C(=O)N2CCCC2)o1 | – | 5.97 | 5.8 µM [rising, full curve]
9 | COc1ccc(NC(=O)CCNS(=O)(=O)c2ccc(Cl)c([N+](=O)[O-])c2)cc1S(N)(=O)=O | – | – | 0.206 µM [falling, single point]
10 | CC(Sc1nnc2n1CCCCC2)C(=O)Nc1ccc(S(N)(=O)=O)cc1 (centres undefined) | – | -4.06 | 14.6 µM [rising, partial curve, poor fit]
11 | C/C(=N\NC(=O)NC1CCCCC1)c1ccc(OC(F)F)cc1OC(F)F | 0.206 µM [rising, full curve, poor fit] | 38.2 | –
12 | COCc1cc(C)n(CC(=O)Nc2ccc(Cl)cc2Cl)c(=O)c1C#N | 8.2 µM [rising, partial curve, poor fit] | 67.1 | –
13 | CCc1ccc(CN(C(=O)c2cc3ccccc3oc2=O)C2CCS(=O)(=O)C2)cc1 (centres undefined) | 6.51 µM [falling, single point] | -15.1 | 6.51 µM [falling, single point]
14 | COc1ccc(OC)c(Nc2ncnc3ccc(Br)cc23)c1 | – | -15.2 | 0.58 µM [falling, single point]
15 | O=C(NC1CCCCCC1)c1ccc(CS(=O)Cc2ccccc2Cl)o1 (centres undefined) | – | -4.58 | 29.1 µM [falling, single point]
16 | CC(C)(C)N(Cc1ccccc1)C(=O)COC(=O)C1=NN(c2ccccc2)C(=O)CC1 | 18.4 µM [falling, single point] | -99.5 | 3.26 µM [falling, full curve]
17 | Cc1cc(NC(=O)c2ccccc2-c2ccccc2)ccc1Br | – | 19.7 | –
18 | COc1ccc(C(C(=O)NCC2CCCO2)N(C(=O)CNC(=O)c2cccs2)c2ccc(C)cc2)cc1OC (centres undefined) | – | 12.6 | –
19 | CC(C)(C)NC(=O)C(c1ccncc1)N(Cc1ccco1)C(=O)c1ccc(-c2ccccc2)[nH]1 (centres undefined) | – | 15.5 | –
20 | COCCN1Cc2cccc(C(=O)Nc3cc(OC)ccc3OC)c2C1=O | – | 5.06 | 0.00461 µM [rising, full curve, poor fit]
21 | CS(=O)(=O)N(CC(=O)O)c1cccc(Cl)c1 | 5.17 µM [falling, partial curve] | -111 | 2.59 µM [falling, full curve]
22 | O=S(=O)(NC1CCCCC1N1CCN(c2ccccc2F)CC1)c1ccccc1 (centres undefined) | – | -11.9 | 16.4 µM [rising, single point]

Among those listed so far, 12 contain sulfur:
Row | SMILES | AC50 [1] | cell number change [%] | AC50 [2]
2 | Fc1ccccc1NC(=S)NCCc1cccc(Cl)c1 | – | -2.6 | 29.1 µM [falling, single point]
5 | CCn1c(SCC(=O)Nc2nc3c(s2)CCCC3)nc2c1c(=O)n(C)c(=O)n2C | – | 14.7 | –
6 | COC(=O)c1ccccc1NS(=O)(=O)c1ccc2[nH]c(=O)[nH]c2c1 | – | 18.6 | 3.26 µM [rising, single point]
7 | CCNC(=S)N/N=C(\C)c1ccc(Cl)s1 | – | -3.86 | –
8 | COc1ccccc1S(=O)(=O)Cc1ccc(C(=O)N2CCCC2)o1 | – | 5.97 | 5.8 µM [rising, full curve]
9 | COc1ccc(NC(=O)CCNS(=O)(=O)c2ccc(Cl)c([N+](=O)[O-])c2)cc1S(N)(=O)=O | – | – | 0.206 µM [falling, single point]
10 | CC(Sc1nnc2n1CCCCC2)C(=O)Nc1ccc(S(N)(=O)=O)cc1 (centres undefined) | – | -4.06 | 14.6 µM [rising, partial curve, poor fit]
13 | CCc1ccc(CN(C(=O)c2cc3ccccc3oc2=O)C2CCS(=O)(=O)C2)cc1 (centres undefined) | 6.51 µM [falling, single point] | -15.1 | 6.51 µM [falling, single point]
15 | O=C(NC1CCCCCC1)c1ccc(CS(=O)Cc2ccccc2Cl)o1 (centres undefined) | – | -4.58 | 29.1 µM [falling, single point]
18 | COc1ccc(C(C(=O)NCC2CCCO2)N(C(=O)CNC(=O)c2cccs2)c2ccc(C)cc2)cc1OC (centres undefined) | – | 12.6 | –
21 | CS(=O)(=O)N(CC(=O)O)c1cccc(Cl)c1 | 5.17 µM [falling, partial curve] | -111 | 2.59 µM [falling, full curve]
22 | O=S(=O)(NC1CCCCC1N1CCN(c2ccccc2F)CC1)c1ccccc1 (centres undefined) | – | -11.9 | 16.4 µM [rising, single point]

Another view of some results above.
Row	SMILES	AC50 [1]	cell number change [%]	AC50 [2]
6	COC(=O)c1ccccc1NS(=O)(=O)c1ccc2[nH]c(=O)[nH]c2c1	–	18.6	3.26 µM [rising, single point]
7	CCNC(=S)N/N=C(\C)c1ccc(Cl)s1	–	-3.86	–

Following part.

Row | SMILES | AC50 [1] | cell number change [%] | AC50 [2]
23 | CC(C)C[C@H](NC(=O)CCn1nnc2ccccc2c1=O)C(=O)O | 20.6 µM [falling, single point] | -38.3 | –
24 | COc1cccc(NC(=S)NC(=O)/C=C/c2ccc(F)cc2)c1 | 0.164 µM [rising, full curve] | 17.5 | 0.651 µM [rising, partial curve, poor fit]
25 | O=C(Nc1nc(-c2ccccc2)c(-c2ccccc2)s1)c1ccc(S(=O)(=O)N2CCCCC2)cc1 | – | -9.5 | –
26 | Cc1cc(C(=O)Nc2ccccc2)c(C)o1 | – | 15.7 | 11.6 µM [falling, partial curve]
27 | COc1ccc2cc3cc(C(=O)NCC4COc5ccccc5O4)oc3nc2c1 (centres undefined) | – | – | 29.1 µM [falling, single point]
28 | Cc1ccc(C(=O)NCC(=O)Nc2ccc(F)c(F)c2F)cc1 | – | 16.3 | 8.2 µM [rising, partial curve, poor fit]
29 | Cc1ccc(OCCC(=O)OCC(=O)NCc2ccccc2)cc1 | – | 10.3 | 20.6 µM [falling, partial curve, poor fit]
30 | COc1ccccc1CCNC(=O)C1(C)CC1(Cl)Cl (centres undefined) | – | 18.3 | 29.1 µM [rising, partial curve]
31 | Cc1c(Cl)cn2c(=O)cc(CN(C)Cc3nc4ccccc4c(=O)[nH]3)nc2c1Cl | 0.0517 µM [rising, full curve, poor fit] | – | –
32 | N/C(=N\N=C\c1cccs1)SC1CC(=O)N(c2ccc(Br)cc2)C1=O (centres undefined) | – | 37.1 | –
33 | Cc1cnc(C(=O)N2CCCC(N3CCN(c4ccccc4F)CC3)C2)cn1 (centres undefined) | 0.103 µM [falling, full curve, poor fit] | -20.4 | –
34 | CC(C)Nc1nc(SCC(=O)Nc2ccccc2)nc(N2CCOCC2)n1 | 0.82 µM [rising, full curve] | – | –
35 | Cc1n[nH]c(=O)nc1NC1CCCCC1 | – | -5.53 | –
36 | O=C(Nc1cccc2ccccc12)N1CCN(Cc2ccccc2)CC1 | – | -2.36 | 0.82 µM [falling, single point]
37 | COc1ccc(CCN(C)C(=O)CCCN2C(=O)c3cccc4cccc(c34)C2=O)cc1OC | 8.2 µM [falling, partial curve, poor fit] | -34.7 | 6.51 µM [falling, single point]
38 | CC(C)(C)c1ccc(C(=O)NCCCNC(=O)c2ccco2)cc1 | – | 1.9 | 6.51 µM [falling, single point]
39 | CC(=O)Nc1ccc(NC(=O)Cn2c(=O)n(-c3ccc(F)cc3)c(=O)c3oc4ccccc4c32)cc1 | – | 19 | 0.146 µM [rising, full curve, poor fit]
40 | NC(=O)CC(NC(=O)Cc1ccc(Br)cc1)c1ccc(N2CCCCCCC2)c([N+](=O)[O-])c1 (centres undefined) | 29.1 µM [rising, single point] | 74.3 | 29.1 µM [falling, single point]
41 | Cc1ccc(S(=O)(=O)N2CCCC(C(=O)NC3CCCC3)C2)cc1Cl (centres undefined) | 6.51 µM [rising, single point] | 1.32 | –
42 | Cc1ccccc1NC(=O)c1ccc(-n2cncn2)nc1 | 0.116 µM [rising, full curve, poor fit] | – | –
43 | NC(=O)c1ccccc1Nc1nc2nc3ccccc3c(=O)n2cc1Br | 0.058 µM [rising, full curve, poor fit] | 28.9 | –
44 | NNC(=O)CCN1CCN(C(c2ccccc2)c2ccccc2)CC1 | – | – | 6.51 µM [falling, partial curve, poor fit]

Row | SMILES | AC50 [1] | cell number change [%] | AC50 [2]
45 | CCN1CCN(c2ncnc3c2oc2nc(C(C)C)c4c(c23)CCC4)CC1 | – | -12.3 | 7.31 µM [falling, single point]
46 | CCc1ccc2[nH]c(=O)c(CN(CC3CCCO3)C(=S)NCc3ccco3)cc2c1 (centres undefined) | – | -12.3 | 29.1 µM [falling, single point]
47 | COc1cc(/C=C2\C(=O)N(c3ccccc3)N=C2C)ccc1Oc1ccc([N+](=O)[O-])cc1[N+](=O)[O-] | 6.51 µM [falling, single point] | 14.9 | 5.17 µM [falling, single point]
48 | c1ccc(COc2ccc(Nc3ncnc4nc[nH]c34)cc2)cc1 | 1.84 µM [rising, partial curve] | – | 0.731 µM [rising, partial curve, poor fit]
49 | Cc1ccccc1NC(=O)Cc1nc(COC(=O)c2cc(Cl)ccc2O)cs1 | – | – | 3.66 µM [falling, partial curve]
50 | CNC(=O)CSc1nnc(-c2ccco2)n1-c1cccc(C)c1 | – | -8.4 | –
51 | CSc1nc(C)c2c(n1)N(c1ccc(C(F)(F)F)cc1)CC2 | – | – | 0.206 µM [falling, full curve, poor fit]
52 | CCCC(C)c1nnc(NC(=O)C2CC(=O)N(c3ccc(OCC)cc3)C2)s1 (centres undefined) | – | -17.1 | 20 µM [falling, single point]
53 | CCC(CC)C(=O)Nc1nc(-c2ccc3c(c2)CCN3C(=O)C2CC2)c(C)s1 | – | 6.67 | 5.17 µM [rising, single point]
54 | CC(NS(=O)(=O)c1ccc(Br)cc1)C(=O)NCc1ccc2c(c1)OCO2 (centres undefined) | – | 20.9 | 7.94 µM [rising, partial curve]
55 | CCn1c(COc2ccc(Cl)cc2)nnc1SCC(=O)Nc1ccc2c(c1)OCCO2 | – | -5.47 | –
56 | O=C(CSc1n[nH]c(-c2ccccc2)n1)N1CCCC1 | – | -26.3 | –
57 | Cc1cccc(C)c1-n1nnnc1C1(Nc2ccccc2)CCCCC1 | – | 18.6 | –
58 | CCC1CCc2c(sc(NC(=O)C3CC=CCC3C(=O)O)c2C#N)C1 (centres undefined) | – | -3.5 | 0.0651 µM [rising, partial curve]
59 | COc1ccc(CCNC(=O)Cn2cccc2C(=O)c2ccccc2C)cc1OC | – | – | 16.4 µM [falling, partial curve]
60 | CCOc1ccccc1CN1CCN(S(=O)(=O)CC)CC1 | – | -13.6 | 1.84 µM [falling, partial curve]
61 | O=C(NC1CCN(C(=S)NCc2ccco2)CC1)c1cccc(F)c1 | – | 34.2 | –
62 | COc1ccc(NC(=O)CC23CC4CC(CC(Br)(C4)C2)C3)c(OC)c1 | – | -7.69 | 29.1 µM [rising, partial curve, poor fit]
63 | Oc1ccc(COC2CCCC2)c2cccnc12 | – | -22.5 | –
64 | CCN(Cc1nc2cc(Cl)ccc2c(=O)[nH]1)C(=O)C1CC(=O)N(c2cccc3ccccc23)C1 (centres undefined) | – | 2.01 | 2.59 µM [rising, partial curve]
